Laboratory results: paper PMC8619209
These are yes or no findings as the source states them, for the method shown. In cells and extracts the contact can be indirect. Some results given as binding are weak or reduced against the parent protein; the word gives no strength.

Chains of the proteins cited; added tags and fusions are not shown. Lines headed by an entry give the natural chain unless they say otherwise; changes in a name come on top.
UniProt P25999: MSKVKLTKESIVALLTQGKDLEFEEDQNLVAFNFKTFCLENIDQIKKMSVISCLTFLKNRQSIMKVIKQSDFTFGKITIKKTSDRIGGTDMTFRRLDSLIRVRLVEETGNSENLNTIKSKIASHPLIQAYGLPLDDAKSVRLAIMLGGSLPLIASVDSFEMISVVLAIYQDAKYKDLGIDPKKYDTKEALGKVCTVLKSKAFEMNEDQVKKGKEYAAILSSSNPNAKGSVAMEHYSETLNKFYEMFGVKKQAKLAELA
UniProt P26002: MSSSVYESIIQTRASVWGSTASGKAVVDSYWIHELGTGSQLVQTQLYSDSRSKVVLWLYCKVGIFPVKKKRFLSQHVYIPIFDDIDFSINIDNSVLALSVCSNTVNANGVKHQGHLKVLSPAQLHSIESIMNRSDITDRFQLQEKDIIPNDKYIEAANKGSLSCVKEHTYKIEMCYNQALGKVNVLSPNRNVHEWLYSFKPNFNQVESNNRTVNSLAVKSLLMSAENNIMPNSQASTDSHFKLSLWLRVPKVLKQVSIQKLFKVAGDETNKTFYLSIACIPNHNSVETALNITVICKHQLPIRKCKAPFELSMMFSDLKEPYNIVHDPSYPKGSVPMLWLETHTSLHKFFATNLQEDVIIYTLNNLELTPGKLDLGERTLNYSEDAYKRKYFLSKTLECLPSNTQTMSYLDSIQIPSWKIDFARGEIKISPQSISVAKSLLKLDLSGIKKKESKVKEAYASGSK

Target: TSWV ribonucleoprotein complexes (RNPs) isolated from TSWV-infected N. benthamiana (Tomato spotted wilt orthotospovirus (isolate BR-01)) (UniProt P25999)
Test: co-sedimentation

TSWV RNA silencing suppressor NSs (from UniProt P26002 1-464)
binding: binds
